Measurements published in publication PMC4173157.

Chains of the proteins cited; added tags and fusions are not shown.
UniProt Q9Y580: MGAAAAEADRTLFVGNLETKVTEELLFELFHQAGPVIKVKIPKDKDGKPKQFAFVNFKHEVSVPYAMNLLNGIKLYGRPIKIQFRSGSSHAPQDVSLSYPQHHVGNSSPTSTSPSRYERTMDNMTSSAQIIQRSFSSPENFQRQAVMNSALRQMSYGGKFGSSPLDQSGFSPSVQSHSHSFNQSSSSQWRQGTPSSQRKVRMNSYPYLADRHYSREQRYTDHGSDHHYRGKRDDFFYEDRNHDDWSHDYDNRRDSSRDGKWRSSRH
UniProt P62258: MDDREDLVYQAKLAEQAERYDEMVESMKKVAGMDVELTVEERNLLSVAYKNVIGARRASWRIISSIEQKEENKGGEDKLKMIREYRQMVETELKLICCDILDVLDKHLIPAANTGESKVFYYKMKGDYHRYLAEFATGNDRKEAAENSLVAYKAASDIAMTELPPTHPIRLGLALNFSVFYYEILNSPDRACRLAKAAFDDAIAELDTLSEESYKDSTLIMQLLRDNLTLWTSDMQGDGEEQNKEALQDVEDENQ

Target: GFP-tagged wild-type RBM7 (human) (UniProt Q9Y580)
Test: affinity purification with mass spectrometry; GFP or GFP-RBM7 expressed in cells, immunoprecipitation, interactors identified by MS (GFP-RBM7:GFP SILAC ratios)

14-3-3ɛ (endogenous, found with GFP-RBM7) (from UniProt P62258 1-255)
binding: binds

These are yes or no findings as the source states them, for the method shown. Binding seen in cells or lysates may run through a third protein. Here binding means that the protein was enriched with, or labelled near, the bait; the list need not be complete.
